No constants are given. Whether binding was seen depends on the method and setting. Binding seen in cells or lysates may run through a third protein. Some entries that bind do so weakly or less than the wild type.
What was measured:
[1] = target: endogenous SNF2H/SMARCA5 (human (endogenous in MCF-7, MCF-10A, HeLa)) (UniProt O60264); experiment: co-IP; anti-SNF2H immunoprecipitation from RIPA lysates of parental MCF-10A cells, control mouse IgG, Benzonase in lysate, Dynabeads protein G, 4 °C, Western blot
YFP-NLS-PFN1 (human) = YFP-NLS-PFN1 (human) (UniProt P07737); experiment: co-IP; anti-GFP immunoprecipitation from RIPA lysates of MCF-7 cells expressing YFP or YFP-NLS-PFN1, Benzonase in lysate, Dynabeads protein G, 4 °C, Western blot for SNF2H
[2] = target: HA-PFN1 (wild type profilin-1) (human) (UniProt P07737); experiment: proximity ligation; Duolink PLA in HA-PFN1-transfected HeLa cells, anti-HA with anti-SNF2H or anti-BOD1L, detergent-extracted and fixed cells, foci per nucleus (>5 positive); also after HU treatment
[3] = target: HA-PFN1 (wild type profilin-1) (human) (UniProt P07737); experiment: co-IP; anti-HA immunoprecipitation from RIPA lysates of transfected HEK293T cells, 250 U/ml Benzonase and 1.5 mM MgCl2 in lysate, Dynabeads protein G, 4 °C, Western blot for SNF2H

Sequences of proteins named here, by UniProt entry; tags and fusion partners are left off.
UniProt O60264: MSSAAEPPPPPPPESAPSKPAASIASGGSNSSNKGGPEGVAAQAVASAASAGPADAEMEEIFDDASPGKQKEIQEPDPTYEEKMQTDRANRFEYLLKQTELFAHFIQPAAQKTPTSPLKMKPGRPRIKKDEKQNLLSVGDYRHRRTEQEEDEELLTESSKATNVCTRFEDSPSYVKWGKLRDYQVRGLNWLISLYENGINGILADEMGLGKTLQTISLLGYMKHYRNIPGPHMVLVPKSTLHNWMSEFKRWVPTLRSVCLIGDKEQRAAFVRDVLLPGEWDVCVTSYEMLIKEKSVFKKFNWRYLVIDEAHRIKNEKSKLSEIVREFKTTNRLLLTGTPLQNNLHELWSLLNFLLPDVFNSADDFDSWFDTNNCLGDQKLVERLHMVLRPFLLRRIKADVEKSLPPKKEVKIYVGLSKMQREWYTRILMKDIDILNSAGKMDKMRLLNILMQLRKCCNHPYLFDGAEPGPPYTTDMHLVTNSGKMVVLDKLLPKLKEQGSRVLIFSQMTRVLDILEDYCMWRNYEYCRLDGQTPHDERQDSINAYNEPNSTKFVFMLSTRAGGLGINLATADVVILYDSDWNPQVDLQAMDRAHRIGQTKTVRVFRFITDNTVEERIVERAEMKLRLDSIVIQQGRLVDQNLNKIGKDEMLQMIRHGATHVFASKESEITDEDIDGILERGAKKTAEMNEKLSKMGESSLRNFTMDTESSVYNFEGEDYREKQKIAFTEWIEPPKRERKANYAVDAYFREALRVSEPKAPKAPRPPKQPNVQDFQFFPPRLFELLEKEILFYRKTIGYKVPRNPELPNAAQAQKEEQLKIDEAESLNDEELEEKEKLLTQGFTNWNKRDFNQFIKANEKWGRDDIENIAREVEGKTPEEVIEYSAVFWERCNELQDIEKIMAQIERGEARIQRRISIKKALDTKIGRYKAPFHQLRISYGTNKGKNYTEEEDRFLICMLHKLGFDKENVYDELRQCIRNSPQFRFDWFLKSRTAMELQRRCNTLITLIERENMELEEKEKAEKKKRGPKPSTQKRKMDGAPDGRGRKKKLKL
UniProt P07737: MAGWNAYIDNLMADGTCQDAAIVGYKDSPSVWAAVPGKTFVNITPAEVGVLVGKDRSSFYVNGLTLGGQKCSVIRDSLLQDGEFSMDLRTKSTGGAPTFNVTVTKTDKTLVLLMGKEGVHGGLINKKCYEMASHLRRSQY
UniProt Q8NFC6: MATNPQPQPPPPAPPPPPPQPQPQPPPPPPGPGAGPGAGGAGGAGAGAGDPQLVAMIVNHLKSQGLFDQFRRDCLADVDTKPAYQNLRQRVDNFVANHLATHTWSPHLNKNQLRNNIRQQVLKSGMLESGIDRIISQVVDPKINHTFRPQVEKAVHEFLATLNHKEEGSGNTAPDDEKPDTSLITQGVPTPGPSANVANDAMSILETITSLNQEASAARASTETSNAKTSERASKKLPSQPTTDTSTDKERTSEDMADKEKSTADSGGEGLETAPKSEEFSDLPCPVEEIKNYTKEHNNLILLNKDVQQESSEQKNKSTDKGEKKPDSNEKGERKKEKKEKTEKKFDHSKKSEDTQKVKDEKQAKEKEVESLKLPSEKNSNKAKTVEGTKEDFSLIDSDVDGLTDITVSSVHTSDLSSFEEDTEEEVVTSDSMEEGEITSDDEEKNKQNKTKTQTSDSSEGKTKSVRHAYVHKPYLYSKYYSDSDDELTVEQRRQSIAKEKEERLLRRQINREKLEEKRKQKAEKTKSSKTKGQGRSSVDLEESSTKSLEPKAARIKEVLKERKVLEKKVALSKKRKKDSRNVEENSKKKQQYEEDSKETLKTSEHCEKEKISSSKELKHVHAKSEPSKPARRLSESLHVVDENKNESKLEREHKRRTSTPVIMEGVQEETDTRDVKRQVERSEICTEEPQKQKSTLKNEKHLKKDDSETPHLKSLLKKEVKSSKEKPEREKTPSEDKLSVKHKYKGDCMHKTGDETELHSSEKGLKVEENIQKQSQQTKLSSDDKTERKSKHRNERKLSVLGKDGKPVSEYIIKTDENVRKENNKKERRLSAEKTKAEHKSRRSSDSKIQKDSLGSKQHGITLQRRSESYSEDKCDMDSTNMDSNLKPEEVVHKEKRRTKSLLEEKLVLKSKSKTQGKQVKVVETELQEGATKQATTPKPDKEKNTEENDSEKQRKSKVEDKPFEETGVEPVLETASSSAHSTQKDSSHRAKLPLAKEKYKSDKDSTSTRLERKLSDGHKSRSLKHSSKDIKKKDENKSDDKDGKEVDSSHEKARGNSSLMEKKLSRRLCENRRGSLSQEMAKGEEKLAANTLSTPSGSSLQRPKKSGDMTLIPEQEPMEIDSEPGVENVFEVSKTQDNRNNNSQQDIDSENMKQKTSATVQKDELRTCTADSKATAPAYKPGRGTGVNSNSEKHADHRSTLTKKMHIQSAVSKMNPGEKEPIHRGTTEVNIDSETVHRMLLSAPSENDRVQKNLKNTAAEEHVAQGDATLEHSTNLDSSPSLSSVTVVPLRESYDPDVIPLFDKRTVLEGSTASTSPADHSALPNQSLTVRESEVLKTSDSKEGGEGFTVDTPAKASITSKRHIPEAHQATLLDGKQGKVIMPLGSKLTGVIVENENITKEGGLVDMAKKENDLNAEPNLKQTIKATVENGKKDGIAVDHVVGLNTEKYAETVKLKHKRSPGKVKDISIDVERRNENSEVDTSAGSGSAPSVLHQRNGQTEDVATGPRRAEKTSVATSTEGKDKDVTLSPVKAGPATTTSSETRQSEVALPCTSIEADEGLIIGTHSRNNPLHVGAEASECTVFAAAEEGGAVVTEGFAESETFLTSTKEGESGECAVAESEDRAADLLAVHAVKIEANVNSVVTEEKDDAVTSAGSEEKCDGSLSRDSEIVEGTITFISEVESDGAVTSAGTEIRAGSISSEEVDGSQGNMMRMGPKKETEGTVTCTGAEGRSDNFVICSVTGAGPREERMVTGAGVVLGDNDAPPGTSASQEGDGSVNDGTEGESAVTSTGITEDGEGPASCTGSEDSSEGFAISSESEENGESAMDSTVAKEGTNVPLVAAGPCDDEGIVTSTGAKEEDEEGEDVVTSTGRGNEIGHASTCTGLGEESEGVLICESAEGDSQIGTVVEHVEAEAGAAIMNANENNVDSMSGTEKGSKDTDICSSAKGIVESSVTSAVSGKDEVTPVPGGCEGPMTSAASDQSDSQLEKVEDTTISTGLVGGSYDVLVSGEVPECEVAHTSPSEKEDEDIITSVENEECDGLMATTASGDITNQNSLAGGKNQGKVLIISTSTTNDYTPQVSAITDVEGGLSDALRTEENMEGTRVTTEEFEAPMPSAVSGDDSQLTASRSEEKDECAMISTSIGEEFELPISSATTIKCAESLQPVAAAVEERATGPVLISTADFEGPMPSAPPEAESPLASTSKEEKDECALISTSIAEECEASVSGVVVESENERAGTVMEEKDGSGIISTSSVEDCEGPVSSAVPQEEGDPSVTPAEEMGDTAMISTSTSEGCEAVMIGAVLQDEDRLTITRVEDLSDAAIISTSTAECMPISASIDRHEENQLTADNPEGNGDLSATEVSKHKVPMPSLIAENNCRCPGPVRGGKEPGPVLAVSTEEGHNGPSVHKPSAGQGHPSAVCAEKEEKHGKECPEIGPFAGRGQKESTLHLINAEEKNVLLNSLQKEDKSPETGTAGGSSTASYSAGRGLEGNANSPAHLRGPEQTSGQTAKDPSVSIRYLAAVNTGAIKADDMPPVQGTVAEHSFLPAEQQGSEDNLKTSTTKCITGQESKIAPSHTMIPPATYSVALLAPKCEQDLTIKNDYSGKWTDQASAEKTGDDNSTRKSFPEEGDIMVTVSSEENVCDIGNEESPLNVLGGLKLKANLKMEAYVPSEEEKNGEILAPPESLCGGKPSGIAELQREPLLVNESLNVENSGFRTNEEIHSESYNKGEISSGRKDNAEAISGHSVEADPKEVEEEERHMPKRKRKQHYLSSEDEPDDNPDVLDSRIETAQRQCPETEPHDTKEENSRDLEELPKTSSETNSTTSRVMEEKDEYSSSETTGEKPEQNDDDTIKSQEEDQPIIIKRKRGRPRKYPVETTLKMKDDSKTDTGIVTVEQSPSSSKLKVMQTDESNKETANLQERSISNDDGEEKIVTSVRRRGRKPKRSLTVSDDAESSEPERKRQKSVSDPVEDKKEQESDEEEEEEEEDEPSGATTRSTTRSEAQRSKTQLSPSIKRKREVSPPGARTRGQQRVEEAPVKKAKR

For “endogenous PFN1 (profilin-1) of MCF-10A cells (from UniProt P07737 1-140)”, the binding [1] was “binds”.
With “endogenous SNF2H/SMARCA5 (from UniProt O60264 1-1052) (enzyme)” the binding (YFP-NLS-PFN1 (human)) was “binds” and the binding [2] was “binds”.
For “SNF2H in transfected HEK293T cells (Fig. 2b) (from UniProt O60264 1-1052) (enzyme)”, the binding [3] was “binds”.
“endogenous BOD1L (from UniProt Q8NFC6 1-3051)” was tested, and the binding [2] was “binds”.

— publication PMC9626489
